Test results: PMC7581431

Chains of the proteins cited; added tags and fusions are not shown. Residues count along the entry.
UniProt Q04721, residues 26-2471: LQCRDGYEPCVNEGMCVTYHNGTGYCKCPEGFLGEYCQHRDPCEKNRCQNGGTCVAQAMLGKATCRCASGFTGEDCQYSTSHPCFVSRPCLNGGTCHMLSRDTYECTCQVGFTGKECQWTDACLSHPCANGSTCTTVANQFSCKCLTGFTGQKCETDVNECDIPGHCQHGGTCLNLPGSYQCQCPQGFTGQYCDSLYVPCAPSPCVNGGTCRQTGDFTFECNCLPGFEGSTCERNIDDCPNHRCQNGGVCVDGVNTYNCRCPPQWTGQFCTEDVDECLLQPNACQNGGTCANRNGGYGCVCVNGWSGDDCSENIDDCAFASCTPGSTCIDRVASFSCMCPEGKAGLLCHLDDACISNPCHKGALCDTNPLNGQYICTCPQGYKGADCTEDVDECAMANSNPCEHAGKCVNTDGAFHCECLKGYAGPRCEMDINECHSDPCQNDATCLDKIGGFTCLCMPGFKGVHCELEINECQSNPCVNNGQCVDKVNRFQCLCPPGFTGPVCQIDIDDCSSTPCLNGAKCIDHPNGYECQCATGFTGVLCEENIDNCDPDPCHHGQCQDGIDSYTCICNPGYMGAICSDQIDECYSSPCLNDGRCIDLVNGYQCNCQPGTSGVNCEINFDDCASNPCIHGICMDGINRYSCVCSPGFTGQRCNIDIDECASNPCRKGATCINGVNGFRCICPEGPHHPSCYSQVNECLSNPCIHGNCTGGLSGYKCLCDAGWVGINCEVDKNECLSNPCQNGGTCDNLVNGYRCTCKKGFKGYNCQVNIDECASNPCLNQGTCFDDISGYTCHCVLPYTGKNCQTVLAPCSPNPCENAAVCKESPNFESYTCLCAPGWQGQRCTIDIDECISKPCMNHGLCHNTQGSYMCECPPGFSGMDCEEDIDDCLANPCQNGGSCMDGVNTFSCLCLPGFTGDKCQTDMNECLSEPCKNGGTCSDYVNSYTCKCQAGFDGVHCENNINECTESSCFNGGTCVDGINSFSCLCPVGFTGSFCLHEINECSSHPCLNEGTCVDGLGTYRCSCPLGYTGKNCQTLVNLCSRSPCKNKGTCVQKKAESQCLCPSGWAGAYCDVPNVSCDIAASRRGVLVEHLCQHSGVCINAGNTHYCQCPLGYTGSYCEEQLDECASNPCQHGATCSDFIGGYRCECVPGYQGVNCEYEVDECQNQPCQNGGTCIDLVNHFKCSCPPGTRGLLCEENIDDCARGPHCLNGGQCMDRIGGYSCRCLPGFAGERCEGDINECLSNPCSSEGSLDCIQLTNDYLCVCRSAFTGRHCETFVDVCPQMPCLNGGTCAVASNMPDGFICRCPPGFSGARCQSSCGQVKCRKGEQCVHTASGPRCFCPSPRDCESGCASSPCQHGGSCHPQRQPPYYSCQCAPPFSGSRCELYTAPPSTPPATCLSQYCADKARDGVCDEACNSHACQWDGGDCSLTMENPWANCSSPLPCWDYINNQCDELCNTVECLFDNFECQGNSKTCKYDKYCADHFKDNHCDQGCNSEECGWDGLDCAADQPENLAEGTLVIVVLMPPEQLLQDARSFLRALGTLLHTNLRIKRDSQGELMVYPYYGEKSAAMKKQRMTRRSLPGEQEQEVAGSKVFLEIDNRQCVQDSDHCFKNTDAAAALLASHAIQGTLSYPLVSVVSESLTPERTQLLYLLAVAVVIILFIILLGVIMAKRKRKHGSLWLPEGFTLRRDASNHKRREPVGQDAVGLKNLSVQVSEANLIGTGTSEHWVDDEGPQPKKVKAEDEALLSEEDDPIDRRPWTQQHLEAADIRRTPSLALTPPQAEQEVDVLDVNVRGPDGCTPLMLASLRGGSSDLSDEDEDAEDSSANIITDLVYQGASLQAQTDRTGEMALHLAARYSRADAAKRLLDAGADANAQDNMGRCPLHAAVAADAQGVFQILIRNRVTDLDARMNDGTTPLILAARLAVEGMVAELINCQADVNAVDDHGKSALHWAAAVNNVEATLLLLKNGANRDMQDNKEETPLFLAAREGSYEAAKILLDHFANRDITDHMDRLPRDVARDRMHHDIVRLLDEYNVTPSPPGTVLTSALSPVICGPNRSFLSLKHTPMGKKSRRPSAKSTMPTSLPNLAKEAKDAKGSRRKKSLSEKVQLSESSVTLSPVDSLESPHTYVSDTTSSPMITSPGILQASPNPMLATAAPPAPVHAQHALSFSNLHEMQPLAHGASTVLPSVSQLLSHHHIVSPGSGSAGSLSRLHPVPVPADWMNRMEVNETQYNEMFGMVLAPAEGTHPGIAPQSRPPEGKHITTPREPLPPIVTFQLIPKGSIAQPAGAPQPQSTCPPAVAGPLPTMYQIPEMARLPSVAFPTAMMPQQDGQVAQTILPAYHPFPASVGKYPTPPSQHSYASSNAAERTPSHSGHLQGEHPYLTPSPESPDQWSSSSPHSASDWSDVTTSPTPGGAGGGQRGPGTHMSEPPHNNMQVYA
UniProt P35222: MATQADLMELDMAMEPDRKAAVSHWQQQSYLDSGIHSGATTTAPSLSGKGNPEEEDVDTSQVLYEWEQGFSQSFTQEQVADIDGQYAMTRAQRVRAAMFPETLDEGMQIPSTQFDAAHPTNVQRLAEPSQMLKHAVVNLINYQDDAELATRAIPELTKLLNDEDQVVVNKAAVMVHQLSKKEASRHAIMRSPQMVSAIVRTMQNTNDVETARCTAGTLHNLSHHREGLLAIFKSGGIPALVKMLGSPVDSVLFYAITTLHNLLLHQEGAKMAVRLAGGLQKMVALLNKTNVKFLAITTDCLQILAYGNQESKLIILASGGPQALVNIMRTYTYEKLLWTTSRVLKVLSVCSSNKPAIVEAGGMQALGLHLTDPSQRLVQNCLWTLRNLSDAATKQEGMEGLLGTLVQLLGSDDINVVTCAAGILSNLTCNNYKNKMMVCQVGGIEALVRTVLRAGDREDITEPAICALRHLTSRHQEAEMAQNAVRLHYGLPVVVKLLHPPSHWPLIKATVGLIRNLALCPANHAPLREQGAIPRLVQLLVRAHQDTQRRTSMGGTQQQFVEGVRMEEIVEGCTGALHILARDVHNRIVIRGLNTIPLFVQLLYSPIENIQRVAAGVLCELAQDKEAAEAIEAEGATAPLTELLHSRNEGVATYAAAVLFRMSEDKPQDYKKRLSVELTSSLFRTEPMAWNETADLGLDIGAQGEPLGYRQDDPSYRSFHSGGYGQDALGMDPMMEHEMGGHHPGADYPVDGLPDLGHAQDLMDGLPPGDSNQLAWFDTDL
UniProt O14641: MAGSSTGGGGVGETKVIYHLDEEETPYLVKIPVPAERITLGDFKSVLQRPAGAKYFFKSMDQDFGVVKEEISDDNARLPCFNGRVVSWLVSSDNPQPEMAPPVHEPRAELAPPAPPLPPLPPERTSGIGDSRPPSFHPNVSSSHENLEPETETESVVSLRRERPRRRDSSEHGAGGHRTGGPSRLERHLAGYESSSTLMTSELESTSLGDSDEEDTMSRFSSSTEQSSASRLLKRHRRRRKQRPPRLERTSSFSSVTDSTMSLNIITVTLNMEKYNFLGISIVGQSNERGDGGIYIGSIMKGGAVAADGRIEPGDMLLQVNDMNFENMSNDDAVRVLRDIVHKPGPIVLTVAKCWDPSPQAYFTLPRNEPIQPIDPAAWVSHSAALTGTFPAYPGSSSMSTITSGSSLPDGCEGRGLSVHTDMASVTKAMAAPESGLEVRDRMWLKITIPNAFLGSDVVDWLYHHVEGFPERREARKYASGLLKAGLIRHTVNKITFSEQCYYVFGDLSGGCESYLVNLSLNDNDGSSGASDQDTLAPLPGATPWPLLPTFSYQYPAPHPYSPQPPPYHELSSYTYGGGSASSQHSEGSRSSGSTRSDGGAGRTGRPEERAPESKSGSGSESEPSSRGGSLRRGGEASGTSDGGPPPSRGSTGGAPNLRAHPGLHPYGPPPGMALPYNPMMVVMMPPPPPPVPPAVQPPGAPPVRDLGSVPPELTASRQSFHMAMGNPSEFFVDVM
UniProt O15169: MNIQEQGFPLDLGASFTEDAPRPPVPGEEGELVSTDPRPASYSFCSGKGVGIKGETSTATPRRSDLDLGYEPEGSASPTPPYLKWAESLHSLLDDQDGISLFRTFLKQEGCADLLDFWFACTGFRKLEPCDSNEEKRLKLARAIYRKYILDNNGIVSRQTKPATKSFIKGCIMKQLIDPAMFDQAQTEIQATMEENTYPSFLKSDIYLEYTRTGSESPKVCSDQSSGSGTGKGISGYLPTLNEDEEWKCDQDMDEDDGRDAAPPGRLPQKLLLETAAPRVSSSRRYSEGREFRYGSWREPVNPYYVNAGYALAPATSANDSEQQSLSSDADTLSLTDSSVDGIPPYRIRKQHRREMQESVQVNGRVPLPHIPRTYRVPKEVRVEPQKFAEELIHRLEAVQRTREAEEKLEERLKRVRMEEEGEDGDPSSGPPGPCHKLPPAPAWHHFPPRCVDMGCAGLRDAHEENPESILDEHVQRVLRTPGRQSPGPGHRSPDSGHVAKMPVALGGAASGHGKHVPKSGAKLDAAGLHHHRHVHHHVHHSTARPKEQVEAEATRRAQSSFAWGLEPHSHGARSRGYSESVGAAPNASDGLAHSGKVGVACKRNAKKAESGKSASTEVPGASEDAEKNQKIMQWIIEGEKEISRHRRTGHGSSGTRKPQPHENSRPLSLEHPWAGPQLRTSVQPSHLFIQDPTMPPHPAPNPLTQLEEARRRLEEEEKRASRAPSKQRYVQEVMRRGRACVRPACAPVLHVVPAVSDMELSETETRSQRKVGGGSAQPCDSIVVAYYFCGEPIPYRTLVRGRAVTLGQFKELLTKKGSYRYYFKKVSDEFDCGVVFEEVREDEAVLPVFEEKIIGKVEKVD
UniProt O75197, residues 32-1615: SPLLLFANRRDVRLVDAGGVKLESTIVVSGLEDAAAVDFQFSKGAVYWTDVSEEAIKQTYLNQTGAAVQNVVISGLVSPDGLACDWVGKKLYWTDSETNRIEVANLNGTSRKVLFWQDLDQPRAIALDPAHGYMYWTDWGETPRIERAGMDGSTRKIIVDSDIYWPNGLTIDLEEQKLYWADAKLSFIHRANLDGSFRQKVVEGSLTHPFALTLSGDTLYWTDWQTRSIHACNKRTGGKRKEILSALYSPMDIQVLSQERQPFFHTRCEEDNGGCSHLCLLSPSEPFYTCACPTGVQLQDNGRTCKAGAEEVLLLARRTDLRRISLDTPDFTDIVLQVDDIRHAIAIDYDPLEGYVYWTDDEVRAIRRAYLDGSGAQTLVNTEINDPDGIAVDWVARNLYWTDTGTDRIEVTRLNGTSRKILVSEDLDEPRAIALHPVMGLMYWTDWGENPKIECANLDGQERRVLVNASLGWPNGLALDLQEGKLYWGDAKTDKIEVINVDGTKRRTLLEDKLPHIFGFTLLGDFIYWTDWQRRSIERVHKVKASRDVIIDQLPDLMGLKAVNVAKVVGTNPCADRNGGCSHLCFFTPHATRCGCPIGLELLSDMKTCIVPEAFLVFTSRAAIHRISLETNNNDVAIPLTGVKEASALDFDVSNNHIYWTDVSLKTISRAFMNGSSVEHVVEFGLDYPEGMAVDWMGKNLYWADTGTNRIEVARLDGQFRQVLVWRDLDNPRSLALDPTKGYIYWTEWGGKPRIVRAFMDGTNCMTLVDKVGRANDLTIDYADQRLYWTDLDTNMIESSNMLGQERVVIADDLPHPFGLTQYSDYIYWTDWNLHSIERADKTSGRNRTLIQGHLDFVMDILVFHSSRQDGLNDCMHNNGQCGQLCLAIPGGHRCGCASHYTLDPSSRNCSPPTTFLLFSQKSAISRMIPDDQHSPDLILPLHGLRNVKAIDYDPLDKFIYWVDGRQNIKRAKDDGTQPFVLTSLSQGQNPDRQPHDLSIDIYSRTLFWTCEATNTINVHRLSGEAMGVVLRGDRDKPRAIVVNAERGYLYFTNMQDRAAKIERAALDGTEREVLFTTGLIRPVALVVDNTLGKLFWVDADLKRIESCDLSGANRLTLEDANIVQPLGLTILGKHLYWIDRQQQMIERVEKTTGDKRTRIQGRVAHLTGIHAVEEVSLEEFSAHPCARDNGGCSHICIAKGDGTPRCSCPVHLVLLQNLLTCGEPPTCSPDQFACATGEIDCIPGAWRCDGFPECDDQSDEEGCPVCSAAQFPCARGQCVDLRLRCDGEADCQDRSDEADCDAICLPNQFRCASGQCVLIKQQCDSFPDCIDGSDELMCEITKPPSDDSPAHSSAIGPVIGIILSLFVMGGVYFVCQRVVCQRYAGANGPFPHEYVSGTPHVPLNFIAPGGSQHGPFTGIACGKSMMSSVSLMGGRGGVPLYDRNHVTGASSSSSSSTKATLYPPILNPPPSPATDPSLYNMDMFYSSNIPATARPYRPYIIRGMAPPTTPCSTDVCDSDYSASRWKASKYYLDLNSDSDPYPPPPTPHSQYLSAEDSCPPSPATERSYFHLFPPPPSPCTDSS

molecular target: T1, Nkd1-BirA* (murine) (UniProt Q99MH6); test: proximity labelling; BioIP: BioID streptavidin pull-down from cells with stably integrated baits, analysed by SDS-PAGE and blot for endogenous p62
T1 sequence: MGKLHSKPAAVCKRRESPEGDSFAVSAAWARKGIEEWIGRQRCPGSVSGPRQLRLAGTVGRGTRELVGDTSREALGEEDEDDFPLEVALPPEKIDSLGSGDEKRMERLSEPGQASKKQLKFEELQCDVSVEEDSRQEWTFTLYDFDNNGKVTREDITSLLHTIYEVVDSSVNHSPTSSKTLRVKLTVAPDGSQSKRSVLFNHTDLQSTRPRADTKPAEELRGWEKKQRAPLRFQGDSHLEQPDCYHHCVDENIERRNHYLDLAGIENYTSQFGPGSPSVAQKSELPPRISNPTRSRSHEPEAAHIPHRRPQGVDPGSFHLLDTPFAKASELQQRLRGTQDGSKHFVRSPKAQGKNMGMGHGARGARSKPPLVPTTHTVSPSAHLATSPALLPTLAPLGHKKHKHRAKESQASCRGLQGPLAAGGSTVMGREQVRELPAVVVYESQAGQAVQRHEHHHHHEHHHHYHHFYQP

binding, binds:
p62 (endogenous) (from UniProt Q13501 1-440)

molecular target: T1, Nkd1-BirA* (murine); test: proximity labelling; BioID with mass spectrometry; BirA* baits stably integrated in Flp-In-T-REx-293 cells, tetracycline-induced, Wnt3a-conditioned media and 50 μM biotin for 12 hr; streptavidin pull-down; hits specific if counts >5 fold over GFP-BirA*; hits may be direct binders or vicinal …

binding, binds:
Notch2 (from UniProt Q04721 26-2471) (receptor), β-catenin (from UniProt P35222 1-781), CELSR1 (from UniProt Q9NYQ6 21-3014) (receptor), DVL2 (endogenous) (from UniProt O14641 1-736), ROR2 (from UniProt Q01974 34-943) (receptor), Axin1 (endogenous) (from UniProt O15169 1-862), LRP5 (from UniProt O75197 32-1615) (receptor), p62 (endogenous) (from UniProt Q13501 1-440), Notch1 (from UniProt P46531 19-2555) (receptor)

These are yes or no findings as the source states them, for the method shown. In cells and extracts the contact can be indirect. A yes stands for co-enrichment or nearness to the bait. Other partners may have been found.
